Values from PubChem BioAssay AID1259405 (NCATS, 2018)

Aim: 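Silenced genes that increase secreted GFP made by CHO cells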 (primary screen)
Cell system: Chinese hamster CHO-K1 ovary cells with stable secreted eGFP expression
Reagent: single siRNA against mouse genes, 0.8 pmol siRNA per well (2 µl of 400 nM stock)
Timing: 3 days
Detection: 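Percent of the per-plate non-targeting control median for intracellular GFP per well by laser scanning cytometry and for cell viability by ATP luminescence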
Scale: GFP, % of control: higher = more GFP per well, higher productivity; viability (ATP), % of control: higher = more viable cells (more ATP)
Call rule: 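Called active when intracellular GFP, relative to negative control, is at or above 120%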
Here is an unselected part of about 50,000 reagents. About 4,000 of them (8%) count as active. 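Mouse siRNA library applied to hamster cells; one well for each siRNA.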 Reagents against one gene are numbered here.

| Target gene | reagent no. | GFP, % of control | viability (ATP), % of control | Outcome |
| --- | --- | --- | --- | --- |
| Tas2r109 (taste receptor, type 2, member 109) | 1 | 38.8 | 55.7 | inactive |
| Tas2r109 (taste receptor, type 2, member 109) | 2 | 124 | 93.9 | active |
| Tas2r109 (taste receptor, type 2, member 109) | 3 | 81.8 | 140 | inactive |
| Ajuba (ajuba LIM protein) | 1 | 83.8 | 88.8 | inactive |
| Ajuba (ajuba LIM protein) | 2 | 49.6 | 73.4 | inactive |
| Vmn1r82 (vomeronasal 1 receptor 82) | 1 | 17.8 | 22.5 | inactive |
| Vmn1r82 (vomeronasal 1 receptor 82) | 2 | 69.8 | 82.8 | inactive |
| Vmn1r82 (vomeronasal 1 receptor 82) | 3 | 87.4 | 86.2 | inactive |
| Noa1 (nitric oxide associated 1) | 1 | 98.5 | 84.9 | inactive |
| Noa1 (nitric oxide associated 1) | 2 | 37 | 51 | inactive |
| Noa1 (nitric oxide associated 1) | 3 | 85.5 | 82.7 | inactive |
| Or5as1 (olfactory receptor family 5 subfamily AS member 1) | 1 | 77.6 | 80.1 | inactive |
| Or5as1 (olfactory receptor family 5 subfamily AS member 1) | 2 | 85 | 77.1 | inactive |
| Or5as1 (olfactory receptor family 5 subfamily AS member 1) | 3 | 43.5 | 17.7 | inactive |
| Foxo1 (forkhead box O1) | 1 | 75.5 | 90 | inactive |
| Foxo1 (forkhead box O1) | 2 | 90.8 | 94 | inactive |
| Banp (BTG3 associated nuclear protein) | 1 | 117 | 60.1 | inactive |
| Banp (BTG3 associated nuclear protein) | 2 | 35.5 | 63.4 | inactive |
| Banp (BTG3 associated nuclear protein) | 3 | 99.9 | 111 | inactive |
| Gpx7 (glutathione peroxidase 7) | 1 | 81.2 | 106 | inactive |
| Gpx7 (glutathione peroxidase 7) | 2 | 54.9 | 52.7 | inactive |
| Gpx7 (glutathione peroxidase 7) | 3 | 106 | 89.2 | inactive |
| Mylk3 (myosin light chain kinase 3) | 1 | 89 | 83 | inactive |
| Or12k5 (olfactory receptor family 12 subfamily K member 5) | 1 | 149 | 62.1 | active |
| Or12k5 (olfactory receptor family 12 subfamily K member 5) | 2 | 77.2 | 43.3 | inactive |
| Or12k5 (olfactory receptor family 12 subfamily K member 5) | 3 | 48.9 | 62 | inactive |
| Il20 (interleukin 20) | 1 | 84.1 | 79.4 | inactive |
| Il20 (interleukin 20) | 2 | 66.8 | 59 | inactive |
| Il20 (interleukin 20) | 3 | 57.5 | 62.9 | inactive |
| Snx10 (sorting nexin 10) | 1 | 140 | 144 | active |
| Snx10 (sorting nexin 10) | 2 | 86.1 | 61.9 | inactive |
| Atp1a2 (ATPase, Na+/K+ transporting, alpha 2 polypeptide) | 1 | 66.8 | 72.6 | inactive |
| Atp1a2 (ATPase, Na+/K+ transporting, alpha 2 polypeptide) | 2 | 97.5 | 85.5 | inactive |
| Atp1a2 (ATPase, Na+/K+ transporting, alpha 2 polypeptide) | 3 | 63.4 | 47 | inactive |
| Nr1i2 (nuclear receptor subfamily 1, group I, member 2) | 1 | 123 | 76.4 | active |
| Nr1i2 (nuclear receptor subfamily 1, group I, member 2) | 2 | 111 | 66.1 | inactive |
| Nr1i2 (nuclear receptor subfamily 1, group I, member 2) | 3 | 88.3 | 91 | inactive |
| Rnf187 (ring finger protein 187) | 1 | 118 | 63.4 | inactive |
| Rnf187 (ring finger protein 187) | 2 | 42.6 | 32.1 | inactive |
| Rnf187 (ring finger protein 187) | 3 | 97.1 | 74.9 | inactive |
| Spg7 (SPG7, paraplegin matrix AAA peptidase subunit) | 1 | 63.6 | 102 | inactive |
| Spg7 (SPG7, paraplegin matrix AAA peptidase subunit) | 2 | 82.2 | 72.1 | inactive |
| Spg7 (SPG7, paraplegin matrix AAA peptidase subunit) | 3 | 54.4 | 74.1 | inactive |
| Spg7 (SPG7, paraplegin matrix AAA peptidase subunit) | 4 | 60.3 | 67.7 | inactive |
| Spg7 (SPG7, paraplegin matrix AAA peptidase subunit) | 5 | 27.6 | 39.9 | inactive |
| Spg7 (SPG7, paraplegin matrix AAA peptidase subunit) | 6 | 93.3 | 89.9 | inactive |
| Pomc (pro-opiomelanocortin-alpha) | 1 | 40 | 59.9 | inactive |
| Pomc (pro-opiomelanocortin-alpha) | 2 | 52.7 | 109 | inactive |
| Pomc (pro-opiomelanocortin-alpha) | 3 | 47.1 | 53.7 | inactive |
| Olfr197 (olfactory receptor 197) | 1 | 74.3 | 70.2 | inactive |
| Olfr197 (olfactory receptor 197) | 2 | 58.6 | 41 | inactive |
| Olfr197 (olfactory receptor 197) | 3 | 53 | 92.1 | inactive |
| Rce1 (Ras converting CAAX endopeptidase 1) | 1 | 67.8 | 60.1 | inactive |
| Rce1 (Ras converting CAAX endopeptidase 1) | 2 | 87 | 42.7 | inactive |
| Rce1 (Ras converting CAAX endopeptidase 1) | 3 | 87.2 | 95.6 | inactive |
| Aph1c (aph1 homolog C, gamma secretase subunit) | 1 | 92 | 116 | inactive |
| Aph1c (aph1 homolog C, gamma secretase subunit) | 2 | 112 | 64.3 | inactive |
| Aph1c (aph1 homolog C, gamma secretase subunit) | 3 | 87.4 | 51.1 | inactive |

Just “viability (ATP), % of control”, for 7 of the entries above:
Pomc (pro-opiomelanocortin-alpha) #1	59.9
Pomc (pro-opiomelanocortin-alpha) #2	109
Pomc (pro-opiomelanocortin-alpha) #3	53.7
Olfr197 (olfactory receptor 197) #1	70.2
Olfr197 (olfactory receptor 197) #2	41
Olfr197 (olfactory receptor 197) #3	92.1
Rce1 (Ras converting CAAX endopeptidase 1) #1	60.1
